This series in a line: general procedure: Fmoc solid-phase peptide synthesis; Rink resin; diimide, HATU, or HBTU. To be noted: whole synthesis, RP-HPLC.

Strings that start with PEPTIDE1 are HELM notation: dots part the residues, brackets hold end groups and non-standard residues.

With “PEPTIDE1{Y.[Aib].E.G.T.F.T.S.D.Y.S.I.[Aib].L.D.K.I.A.Q.Q.A.F.V.Q.W.L.I.A.G.G.P.S.S.G.A.P.P.P.S.[am]}|PEPTIDE2{[Phn19].[gGlu].[PEG2].[PEG2]}$PEPTIDE1,PEPTIDE2,16:R3-4:R2$$$V2.0”, the “final HPLC purity” value came out at 95.0%.

The values above are taken from patent US12421282B2 (priority 2021, dated 2025).
